Assay results taken from PubChem BioAssay AID1487 (National Center for Advancing Translational Sciences (NCATS), 2009).
Screen size: about 200,000 compounds; about 25 (0.01%) were called active. Inconclusive results, whose numbers are uncertain, are shown with a selection of clear calls. Calls come from the whole dose curve; as a rule, active = well fitted inhibition curve with a large enough effect in the signal ratio, with a control signal flat (not every such curve was filed as active); inconclusive = small, poorly fitted or top-dose-only effect, or effect the other way, or a change in a side signal; inactive = flat fitted curve, though single readings scatter; the % refers to the signal ratio. Potencies of inconclusive entries are doubtful fits and often do not repeat.

assay: qHTS Assay for Modulators of Lamin A Splicing; conditions: HeLa LMNA splicing GFP/RFP minigene ratio, 48 h; ratio change, negative = inhibition: at 46.1 µM (top of the series) unless noted
Summary of the method: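 Read-out is the ratio of GFP to DsRed2 object intensity, acquired by 488 nm laser-scanning cytometry on HeLa lamin A-EGFP minigene reporter cells. Compound incubation 48 hrs at 37 °C in Opti-MEM with 2% FBS; DMSO 0.5% final.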
% is set by controls: 0 for no effect and ±100 for the full control effect; potency is the fitted concentration of half-maximal effect.

Row | SMILES | ratio change, negative = inhibition | Potency
1 | O=C(CSCc1cnn(-c2ccccc2)c1-n1cccc1)NCc1cccnc1 | inconclusive: -8.23% [at 46 µM] | –
2 | FC(F)(F)c1ccccc1-c1cc(NCc2ccccc2)ncn1 | inconclusive: -19.1% | –
3 | Cc1cc(NCc2ccccc2Cl)n2nnnc2n1 | inconclusive: 16.4% | –
4 | O=C(c1ccco1)N1N=C(c2ccc(Br)cc2)CC1(O)C(F)(F)F (configuration not stated) | inconclusive: -22.3% [at 46 µM] | –
5 | Cc1ccc(CN2CCN(Cc3c(C)nn(C(C)C)c3C)CC2CCO)o1 (configuration not stated) | inconclusive: -22.1% [at 46 µM] | –
6 | CCOC(=O)C1CCN(c2ncnc3c2oc2ccc(Cl)cc23)CC1 | inconclusive: 11.2% | –
7 | CC(C)(C)c1ccc(C(=O)NCC(=O)OCC(=O)Nc2ccccc2[N+](=O)[O-])cc1 | inactive | –
8 | c1ccc(-c2cc(-c3ccncc3)nc3ccc4ccccc4c23)cc1 | inconclusive: -38.6% | –
9 | C=CCNC(=S)NCC1COc2ccccc2O1 (configuration not stated) | inconclusive: 2.62% | –
10 | COc1ccc(-c2nn(-c3cccc(F)c3)c3c2cnc2cc(OC)c(OC)cc23)cc1 | inconclusive: -13.2% [at 46 µM] | –
11 | O=C(c1ccc(C(F)(F)F)cc1)N1CCC(=O)N(C(COCc2ccc(C(F)(F)F)cc2)Cc2ccccc2)CC1 (configuration not stated) | inconclusive: -40% | –
12 | O=S(=O)(c1ccc(N2CCCC2)cc1)C(F)(F)F | – | inconclusive: 35.5 µM [falling, single point]
13 | Cc1ccc(SC(CC(=O)c2ccc(C)cc2)C(=O)O)cc1 (configuration not stated) | – | inconclusive: 14.1 µM [inhibitor, single point]
14 | Cc1ccccc1-c1nc(N2CCN(C)CC2)c2ccccc2n1 | inactive | –
15 | COC(=O)C(c1ccccc1Cl)N1CCc2sccc2C1 (configuration not stated) | inconclusive: -30.8% | –
16 | CCCC(=O)Nc1cc(C(F)(F)F)ccc1N1CCOCC1 | inactive | –
17 | CCCC(=O)Nc1ccc(C(=O)N2CCCC2)cc1 | inactive | –
18 | O=C(N/N=C/c1cccs1)C1CC(=O)N(c2ccccc2)C1 (configuration not stated) | – | inconclusive: 35.5 µM [rising, single point]
19 | Cc1cc(C)cc(-n2c(SCC(=O)Nc3ccc4c(c3)OCCO4)nc3c([nH]c4ccccc43)c2=O)c1 | inactive | –
20 | O=Cc1cn(CCC(=O)O)nc1-c1cc2ccccc2o1 | inactive | –
21 | Cc1sc2ncnc(NCc3ccco3)c2c1C | inconclusive: -13.4% | –
22 | Cc1cc(C)n(CC(=O)N/N=C/c2ccccn2)n1 | inactive | –

2 entries from above, as tab-separated lines.
Row	SMILES	ratio change, negative = inhibition	Potency
5	Cc1ccc(CN2CCN(Cc3c(C)nn(C(C)C)c3C)CC2CCO)o1 (configuration not stated)	inconclusive: -22.1% [at 46 µM]	–
12	O=S(=O)(c1ccc(N2CCCC2)cc1)C(F)(F)F	–	inconclusive: 35.5 µM [falling, single point]

Additional structures follow:

Row | SMILES | ratio change, negative = inhibition | Potency
23 | Fc1ccccc1/C=C1\CCCC2=C1NC(=S)NC2c1ccccc1F (configuration not stated) | – | inconclusive: 12.6 µM [inhibitor, partial curve]
24 | Cc1ccccc1CSCC(=O)NCc1ccco1 | inconclusive: 11.7% | –
25 | COc1ccc(-c2csc(N3CCN(c4cc(C)nc5ccccc45)CC3)n2)cc1OC | inconclusive: 497% [at 46 µM] | –
26 | COCC(C)NCc1ccc(C)cc1C (configuration not stated) | inactive | –
27 | Cc1ccc(C2SCCN2C(=O)c2ccc([N+](=O)[O-])cc2)cc1 (configuration not stated) | inactive | –
28 | O=C(O)CN1CCCC1=Nc1ccccc1 | inactive | –
29 | COc1ccc(C2CC(c3ccc4ccccc4c3)=NN2C(=O)CN2C(=O)CCC2=O)cc1 (configuration not stated) | – | inconclusive: 20 µM [inhibitor, single point]
30 | CCN(CC)CCNC(=O)c1sc2ncccc2c1-n1cccc1 | inconclusive: -3.54% [at 46 µM] | –
31 | CC(=O)c1cccc(NC(=O)CN(Cc2ccccc2)S(C)(=O)=O)c1 | inconclusive: 14.6% | –
32 | CCc1ccccc1NC(=O)c1cc(=O)c2ccccc2o1 | inactive | –
33 | COc1cccc(CN2CCNC(=O)C2CC(=O)NCc2cn3cccc(C)c3n2)c1OC (configuration not stated) | inconclusive: 10.1% [at 46 µM] | –
34 | O=C(CSc1nnc(-c2ccccc2F)n1C1CC1)Nc1cccnc1Cl | inconclusive: -30.6% | –
35 | CCCCc1ccc(-c2csc(/C(C#N)=C/c3ccc(C)o3)n2)cc1 | inactive | –
36 | CCN(CC)C(=O)N1CCN(Cc2ccc3c(c2)OCO3)CC1 | inconclusive: -24.4% [at 46 µM] | –
37 | CN(C)S(=O)(=O)c1cc(C(=O)NCCCn2ccc3ccccc32)ccc1Cl | inconclusive: -13.2% | –
38 | Cc1ccc(N(C(=O)CCl)C(C(=O)NC2CCCCC2)c2cccnc2)cc1C (configuration not stated) | inconclusive: 7.38% | –
39 | CCC(=O)c1c(O)cc(O)cc1O | inconclusive: -20.2% | –
40 | Cc1cccc(C)c1NC(=O)CN1C(=O)c2cccc3cccc1c23 | inactive | –
41 | Cc1ccc(-c2nn(-c3ccccc3)cc2C=C2C(=O)CC(C)(C)CC2=O)cc1 | – | inconclusive: 35.5 µM [inhibitor, single point]
42 | CCC(=O)Nc1ccc(Nc2ccccc2)cc1 | inactive | –
43 | CSc1nc(Oc2ccc3ccccc3c2)c2sccc2n1 | inconclusive: 2.09% | –
44 | NNC(=O)c1ccc(CSc2nc3ccccc3s2)cc1 | inconclusive: -35.5% [at 46 µM] | –

Row | SMILES | ratio change, negative = inhibition | Potency
45 | Cc1ccc2c(=O)c(C(=O)c3ccc(F)cc3)cn(CC(=O)NCCc3ccccc3)c2n1 | inconclusive: -4.92% [at 46 µM] | –
46 | CCOCCCNC(=O)C(=O)Nc1c2c(nn1-c1ccc(OC)cc1)CSC2 | inactive | –
47 | Oc1ccc(C(=S)N2CCCCC2)cc1 | inactive | –
48 | O=[N+]([O-])c1ccc(O)c(/C=N/Nc2nc3ccccc3[nH]2)c1 | – | inconclusive: 3.16 µM [falling, full curve]
49 | O=C(O)CCC(=O)N1N=C(c2c(-c3ccccc3)c3cc(Cl)ccc3[nH]c2=O)CC1c1ccco1 (configuration not stated) | inactive | –
50 | CC(Sc1nc2c(cc1C#N)CCCCC2)C(=O)O (configuration not stated) | inconclusive: -4.58% [at 46 µM] | –
51 | Cc1cccc(Oc2ccc(S(=O)(=O)N3CCCCC3)cc2N)c1 | inconclusive: -25.2% [at 46 µM] | –
52 | Cn1cc([N+](=O)[O-])c(C(=O)Nc2ccn(Cc3c(F)c(F)cc(F)c3F)n2)n1 | – | inconclusive: 25.1 µM [inhibitor, single point]
53 | CCc1ccc(-c2cn(-c3nc(C)cc(C)n3)c(=N)o2)cc1 | inconclusive: -49.7% | –
54 | CCOC(=O)c1cnc(SC)nc1Nc1cccc(F)c1 | inactive | –
55 | O=C1c2ccccc2C(=O)N1CCSc1ncn[nH]1 | inactive | –
56 | CC(C)(C)[C@]1(O)CCN2C[C@H]3c4ccccc4CCc4cccc(c43)[C@@H]2C1 | – | inconclusive: 35.5 µM [falling, single point]
57 | O=c1[nH]c2ccc(Cl)cc2c(O)c1-c1ccccc1 | inactive | –
58 | Cc1nc2c(c(=O)n1CCC1=CCCCC1)c1nc3ccccc3nc1n2/N=C/c1ccco1 | inactive | –
59 | O=C(COc1cccc2ccccc12)NCc1cccnc1 | inconclusive: 15.9% [at 46 µM] | –
60 | COCCNC(=O)c1csc2c1CCCC2 | inactive | –
61 | COc1ccc(CCN2C(=O)CC(NNc3ccc([N+](=O)[O-])cc3)C2=O)cc1OC (configuration not stated) | inactive | –
62 | CCN(CC)S(=O)(=O)c1ccc2c(c1)c(=O)c(C(=O)NCCCN(C)c1ccccc1)cn2C | inactive | –
63 | CCOC(=O)c1c(C)oc2nc(C)nc(NCC3CCN(Cc4cccc(Cl)c4)CC3)c12 | inactive | –
64 | CNc1nc(-c2ccc(Cl)cc2)cs1 | inconclusive: 10.9% | –
65 | CCc1c(C)sc(NC(=O)Cn2nc(C)c([N+](=O)[O-])c2C)c1C(N)=O | inactive | –
66 | CC(=O)O[C@H]1C(=O)[C@@]2(C)[C@H]([C@H](OC(=O)c3ccccc3)[C@]3(O)C[C@H](OC(=O)[C@H](O)C(NC(=O)c4ccccc4)c4ccccc4)C(C)=C1C3(C)C)[C@]1(OC(C)=O)CO[C@@H]1C[C@@H]2O (some centres not stated) | – | inconclusive: 0.0355 µM [cytotoxic, full curve]

Row | SMILES | ratio change, negative = inhibition | Potency
67 | O=C(OCn1ncc(Br)c(Br)c1=O)c1ccccc1Cl | – | inconclusive: 35.5 µM [falling, single point]
68 | CC(=O)Oc1cc2oc(=O)cc(C)c2cc1OC(C)=O | inconclusive: -40.3% [at 46 µM] | –
69 | CCc1ccc(NC(=O)CN(c2cccc(C)c2)S(C)(=O)=O)cc1 | inactive | –
70 | COC(=O)c1nc(N)sc1-c1ccccc1 | inactive | –
71 | O=C(O)CCCC(=O)Nc1ccc(Cl)c(Cl)c1 | inactive | –
72 | C[C@H](CCC(=O)O)[C@H]1CC[C@H]2[C@@H]3CC[C@@H]4C[C@H](O)CC[C@]4(C)[C@H]3C[C@H](O)[C@]12C | inconclusive: -18.3% | –
73 | CCN1C(=O)C(c2ccc(O)cc2)(c2ccc(O)cc2)c2ccccc21 | inconclusive: -19% [at 46 µM] | –
74 | CS(=O)(=O)N(CC(=O)NCc1ccco1)c1ccc(Cl)c(C(F)(F)F)c1 | inconclusive: -1.43% | –
75 | Cc1cccc(C)c1NC(=O)C(c1ccccc1)N1CCOCC1 (configuration not stated) | inactive | –
76 | Cc1[nH]nc(-c2ccc(O)c(C)c2O)c1-c1cnn(-c2ccccc2)c1 | inconclusive: -30.4% | –
77 | Cc1cccc(CNc2ncncc2-c2ccccc2Cl)c1 | inconclusive: -13.5% | –
78 | CCC1CN(C(=O)Nc2cccc3c2CCCC3)c2ccccc2O1 (configuration not stated) | inconclusive: -0.677% [at 46 µM] | –
79 | Cc1occc1-c1nnc(SCC(=O)Nc2nc(C(C)(C)C)cs2)o1 | – | inconclusive: 10 µM [falling, partial curve]
80 | O=C(Nc1nccs1)c1ccc(COc2ccc(F)cc2)o1 | inconclusive: -4.8% | –
81 | COC(=O)C(C)Sc1ccc2nnc(CCNS(=O)(=O)c3ccccc3)n2n1 (configuration not stated) | inconclusive: -9.39% [at 46 µM] | –
82 | O=[N+]([O-])c1ccccc1/C=N/NC1=NCCCCC1 | inactive | –
83 | CC1=NN(C(=O)Cn2ccc([N+](=O)[O-])n2)C(O)(C(F)(F)F)C1 (configuration not stated) | inconclusive: -2.77% | –
84 | CCOC(=O)C1=C(N)OC2=C(C(=O)CCC2)C1c1cccnc1 (configuration not stated) | inactive | –
85 | CC1CCCCN1S(=O)(=O)c1coc(C(N)=O)c1 (configuration not stated) | inactive | –
86 | CN(C)C(=O)Nc1ccc(Cl)c(Cl)c1 | inconclusive: -37.7% | –
87 | CCn1ncc(/C=C/C(=O)c2ccccc2)c1C | inactive | –

Copied from above: entries 74–76
Row | SMILES | ratio change, negative = inhibition | Potency
74 | CS(=O)(=O)N(CC(=O)NCc1ccco1)c1ccc(Cl)c(C(F)(F)F)c1 | inconclusive: -1.43% | –
75 | Cc1cccc(C)c1NC(=O)C(c1ccccc1)N1CCOCC1 (configuration not stated) | inactive | –
76 | Cc1[nH]nc(-c2ccc(O)c(C)c2O)c1-c1cnn(-c2ccccc2)c1 | inconclusive: -30.4% | –
